Results published in the supplement of paper PMC7661543.
Differences between knockout arms are mostly noise.

Tested on: SKBR3
Assay: relative cell number vs DMSO control (72 h) (% of DMSO); higher = less growth inhibition (more cells)
Experimental: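 QMAP-Seq: a pool of 5 breast cancer cell lines (ZR-75-1, SKBR3, HCC-38, MDA-MB-231, BT-20), each carrying 12 doxycycline-inducible Cas9 sgRNA perturbations (11 knockouts plus non-targeting sgNT), was treated with compounds for 72 h at four 10-fold doses (10 nM-10 uM or 1 nM-1 uM range). Barcodes were amplified and sequenced, and cell number was interpolated from 293T spike-in standard curves. The result is expressed as % of the median of DMSO wells. Two biological replicates.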

O=P1(NCCCl)OCCCN1CCCl (stereo not drawn) [Ifosfamide]
Settings | relative cell number
sgRNA knockout: sgATF3, 10 nM | 112
sgRNA knockout: sgATF3, 100 nM | 96.2
sgRNA knockout: sgATF3, 1000 nM | 120
sgRNA knockout: sgATF3, 10000 nM | 100
sgRNA knockout: sgATF4, 10 nM | 91.8
sgRNA knockout: sgATF4, 100 nM | 99.7
sgRNA knockout: sgATF4, 1000 nM | 98.5
sgRNA knockout: sgATF4, 10000 nM | 99.4
sgRNA knockout: sgATF6, 10 nM | 110
sgRNA knockout: sgATF6, 100 nM | 95.3
sgRNA knockout: sgATF6, 1000 nM | 97.5
sgRNA knockout: sgATF6, 10000 nM | 95.9
sgRNA knockout: sgATG7, 10 nM | 101.8
sgRNA knockout: sgATG7, 100 nM | 105.7
sgRNA knockout: sgATG7, 1000 nM | 101
sgRNA knockout: sgATG7, 10000 nM | 102
sgRNA knockout: sgERN1, 10 nM | 97.9
sgRNA knockout: sgERN1, 100 nM | 88.7
sgRNA knockout: sgERN1, 1000 nM | 74.8
sgRNA knockout: sgERN1, 10000 nM | 106
sgRNA knockout: sgHSF1, 10 nM | 86.9
sgRNA knockout: sgHSF1, 100 nM | 91.5
sgRNA knockout: sgHSF1, 1000 nM | 110
sgRNA knockout: sgHSF1, 10000 nM | 88.8
sgRNA knockout: sgHSF2, 10 nM | 114
sgRNA knockout: sgHSF2, 100 nM | 71.6
sgRNA knockout: sgHSF2, 1000 nM | 99.6
sgRNA knockout: sgHSF2, 10000 nM | 82.6
sgRNA knockout: sgKEAP1, 10 nM | 104
sgRNA knockout: sgKEAP1, 100 nM | 108
sgRNA knockout: sgKEAP1, 1000 nM | 85
sgRNA knockout: sgKEAP1, 10000 nM | 81.2
sgRNA knockout: sgNFE2L2, 10 nM | 108.6
sgRNA knockout: sgNFE2L2, 100 nM | 101
sgRNA knockout: sgNFE2L2, 1000 nM | 101
sgRNA knockout: sgNFE2L2, 10000 nM | 101
sgRNA knockout: sgSLC35F2, 10 nM | 108
sgRNA knockout: sgSLC35F2, 100 nM | 110
sgRNA knockout: sgSLC35F2, 1000 nM | 96
sgRNA knockout: sgSLC35F2, 10000 nM | 80.3
sgRNA knockout: sgXBP1, 10 nM | 112
sgRNA knockout: sgXBP1, 100 nM | 93.8
sgRNA knockout: sgXBP1, 1000 nM | 94.8
sgRNA knockout: sgXBP1, 10000 nM | 104

CCn1c(=O)c2c(nc(/C=C/c3ccc(OC)c(OC)c3)n2C)n(CC)c1=O [Istradefylline]
Settings | relative cell number
sgRNA knockout: sgATF3, 10 nM | 103
sgRNA knockout: sgATF3, 100 nM | 115
sgRNA knockout: sgATF3, 1000 nM | 81.4
sgRNA knockout: sgATF3, 10000 nM | 123
sgRNA knockout: sgATF4, 10 nM | 85.6
sgRNA knockout: sgATF4, 100 nM | 82.7
sgRNA knockout: sgATF4, 1000 nM | 83.7
sgRNA knockout: sgATF4, 10000 nM | 102
sgRNA knockout: sgATF6, 10 nM | 79
sgRNA knockout: sgATF6, 100 nM | 81.7
sgRNA knockout: sgATF6, 1000 nM | 83.7
sgRNA knockout: sgATF6, 10000 nM | 97.1
sgRNA knockout: sgATG7, 10 nM | 82.4
sgRNA knockout: sgATG7, 100 nM | 124
sgRNA knockout: sgATG7, 1000 nM | 78.8
sgRNA knockout: sgATG7, 10000 nM | 117
sgRNA knockout: sgERN1, 10 nM | 82.8
sgRNA knockout: sgERN1, 100 nM | 109
sgRNA knockout: sgERN1, 1000 nM | 81
sgRNA knockout: sgERN1, 10000 nM | 107
sgRNA knockout: sgHSF1, 10 nM | 80.7
sgRNA knockout: sgHSF1, 100 nM | 92.7
sgRNA knockout: sgHSF1, 1000 nM | 95.6
sgRNA knockout: sgHSF1, 10000 nM | 89.6
sgRNA knockout: sgHSF2, 10 nM | 93.7
sgRNA knockout: sgHSF2, 100 nM | 92.6
sgRNA knockout: sgHSF2, 1000 nM | 92.6
sgRNA knockout: sgHSF2, 10000 nM | 79.8
sgRNA knockout: sgKEAP1, 10 nM | 89
sgRNA knockout: sgKEAP1, 100 nM | 83.5
sgRNA knockout: sgKEAP1, 1000 nM | 70.4
sgRNA knockout: sgKEAP1, 10000 nM | 84.3
sgRNA knockout: sgNFE2L2, 10 nM | 88
sgRNA knockout: sgNFE2L2, 100 nM | 80.4
sgRNA knockout: sgNFE2L2, 1000 nM | 102
sgRNA knockout: sgNFE2L2, 10000 nM | 96.8
sgRNA knockout: sgSLC35F2, 10 nM | 87.6
sgRNA knockout: sgSLC35F2, 100 nM | 70.2
sgRNA knockout: sgSLC35F2, 1000 nM | 91.1
sgRNA knockout: sgSLC35F2, 10000 nM | 91.4
sgRNA knockout: sgXBP1, 10 nM | 91
sgRNA knockout: sgXBP1, 100 nM | 119
sgRNA knockout: sgXBP1, 1000 nM | 89.2
sgRNA knockout: sgXBP1, 10000 nM | 130
